Values quoted from earlier work in US10151753B2, “Microfluidic devices for isolating particles” (The General Hospital Corporation, priority 2013, dated 2018).
At least one structure is not confirmed: it was looked up by name or label, or the drawing left a doubt.

Tested on: Rec-1 cell line
Details: cited from earlier work

In the case of C=CC(=O)N1CCC[C@@H](n2nc(-c3ccc(Oc4ccccc4)cc3)c3c(N)ncnc32)C1 [Ibrutinib], the “sensitivity of the cell line to the drug” value is listed as “sensitive”.
